Assay results from paper PMC3923060, “HCV Core Residues Critical for Infectivity Are Also Involved in Core-NS5A Complex Formation” (PLoS ONE, 2014).
Results are given in words; binding and its absence hold for the method and conditions named. Some binding calls cover weakened binding; strength is not graded here.

Tests used:
[1] = molecular target: GST-Core-BD2-His R50A/K51A/R59A (hepatitis C virus genotype 2a, strain JFH1) (UniProt Q99IB8); experiment: pull-down; 4 µg GST protein (bait) mixed with 10 µg NS5A protein in 100 µl binding buffer (50 mM Tris-HCl pH 7.5, 100 mM NaCl, 5 mM MgCl2, 10% glycerol, 0.5% Igepal CA-630, 1 mM DTT), 3 h at 4°C, then glutathione beads 1 h; Western blot (anti-NS5A, anti-Flag), in Figure 3 quantified by IR fluorescence; both purified
[2] = molecular target: GST-Core-BD2-His R59A/R62A (hepatitis C virus genotype 2a, strain JFH1) (UniProt Q99IB8); experiment: as above
[3] = molecular target: GST-Core-BD2-His K51A/R59A/R62A (hepatitis C virus genotype 2a, strain JFH1) (UniProt Q99IB8); experiment: as above
[4] = molecular target: GST-Core-BD2-His R50A/R59A/R62A (hepatitis C virus genotype 2a, strain JFH1) (UniProt Q99IB8); experiment: as above
[5] = molecular target: GST-Core-BD2-His K51A/R59A (hepatitis C virus genotype 2a, strain JFH1) (UniProt Q99IB8); experiment: as above
[6] = molecular target: GST-Core-BD2-His R50A/K51A/R62A (hepatitis C virus genotype 2a, strain JFH1) (UniProt Q99IB8); experiment: as above
[7] = molecular target: GST-Core-BD2-His R50A/R59A (hepatitis C virus genotype 2a, strain JFH1) (UniProt Q99IB8); experiment: as above
[8] = molecular target: GST-Core-BD2-His R50A/K51A (hepatitis C virus genotype 2a, strain JFH1) (UniProt Q99IB8); experiment: as above
[9] = molecular target: GST-Core-BD2-His K51A/R62A (hepatitis C virus genotype 2a, strain JFH1) (UniProt Q99IB8); experiment: as above
[10] = molecular target: GST-Core-BD2-His R50A/R62A (hepatitis C virus genotype 2a, strain JFH1) (UniProt Q99IB8); experiment: as above
[11] = molecular target: GST-Core-BD2-His R50A/K51A/R59A/R62A (hepatitis C virus genotype 2a, strain JFH1) (UniProt Q99IB8); experiment: as above
[12] = molecular target: GST-Core75-170-His (hepatitis C virus genotype 2a, strain JFH1) (UniProt Q99IB8); experiment: as above
[13] = molecular target: GST-Core122-170-His (hepatitis C virus genotype 2a, strain JFH1) (UniProt Q99IB8); experiment: condition: 10 µg NS5A protein with 4 µg GST protein in 100 µl; pull-down; 4 µg GST protein (bait) mixed with 10 µg NS5A protein in 100 µl binding buffer (50 mM Tris-HCl pH 7.5, 100 mM NaCl, 5 mM MgCl2, 10% glycerol, 0.5% Igepal CA-630, 1 mM DTT), 3 h at 4°C, then glutathione beads 1 h; Western blot (anti-NS5A, anti-Flag), in Figure 3 quantified by IR fluorescence; both purified

“full-length NS5A-His (from UniProt Q99IB8 1977-2442)” was tested, and the binding [1] was “binds weakly”, the binding [2] was “binds weakly” and the binding [3] was “binds weakly”. The binding [4] was “binds weakly”, the binding [5] was “binds weakly” and the binding [6] was “binds weakly”. For the same substance, the binding [7] was “binds weakly”, the binding [8] was “binds weakly” and the binding [9] was “binds weakly”. The binding [10] was “binds weakly”, the binding [11] was “binds weakly” and the binding [12] was “binds weakly”. For the same substance, the binding [13] was “no binding”.
